Results taken from paper PMC4376871.
Where a chain is given by its changes, count along the chain named. Results are given in words; binding and its absence hold for the method and conditions named. For part of these data: Binding calls can cover weak binding; strength is not graded here. Sequences can lack the tags named with a protein.

How the values were obtained:
[1] = biological target: T1, Arabidopsis SHAGGY-like protein kinase AtSK23 fused to the GAL4 DNA binding domain (Arabidopsis thaliana (ecotype Sei-0 cDNA)) (UniProt Q39010); test: two-hybrid; yeast Y187; C4 or C4 mutants on AD, AtSKs on DBD; quantitative ß-galactosidase activity (Galacto-Star, chemiluminescence) relative to the C4/AtSK23 interaction
T1 sequence: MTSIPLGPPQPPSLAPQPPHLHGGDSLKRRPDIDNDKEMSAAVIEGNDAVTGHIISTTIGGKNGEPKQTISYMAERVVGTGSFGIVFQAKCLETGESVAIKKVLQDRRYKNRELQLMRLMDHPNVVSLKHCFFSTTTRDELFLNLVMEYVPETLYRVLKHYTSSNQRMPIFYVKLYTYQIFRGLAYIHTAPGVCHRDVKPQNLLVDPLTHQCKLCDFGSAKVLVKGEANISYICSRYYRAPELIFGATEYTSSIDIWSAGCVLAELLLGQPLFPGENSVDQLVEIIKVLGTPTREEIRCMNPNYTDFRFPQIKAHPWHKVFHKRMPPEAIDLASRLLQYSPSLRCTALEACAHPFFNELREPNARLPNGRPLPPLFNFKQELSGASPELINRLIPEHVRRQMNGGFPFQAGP

[2] = biological target: T2, Kinase-dead AtSK21K69R fused to the GAL4 DNA binding domain (Arabidopsis thaliana (ecotype Sei-0 cDNA)) (UniProt Q39011); test: as above
T2 sequence: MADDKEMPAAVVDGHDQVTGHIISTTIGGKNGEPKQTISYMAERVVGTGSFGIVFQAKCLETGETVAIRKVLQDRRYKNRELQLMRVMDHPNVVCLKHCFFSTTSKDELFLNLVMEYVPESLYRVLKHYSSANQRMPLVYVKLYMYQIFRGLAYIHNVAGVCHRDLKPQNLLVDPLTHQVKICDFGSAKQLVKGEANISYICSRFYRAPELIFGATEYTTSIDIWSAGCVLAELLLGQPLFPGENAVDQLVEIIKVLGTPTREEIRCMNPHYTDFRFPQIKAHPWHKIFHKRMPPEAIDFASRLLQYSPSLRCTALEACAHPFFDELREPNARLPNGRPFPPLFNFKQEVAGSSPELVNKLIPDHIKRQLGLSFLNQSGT

[3] = biological target: T3, Kinase-dead AtSK23K101R fused to the GAL4 DNA binding domain (Arabidopsis thaliana (ecotype Sei-0 cDNA)) (UniProt Q39010); test: as above
T3 sequence: T1 sequence with K101R

[4] = biological target: T4, Arabidopsis SHAGGY-like protein kinase AtSK13 fused to the GAL4 DNA binding domain (Arabidopsis thaliana (ecotype Sei-0 cDNA)) (UniProt Q8VZD5); test: two-hybrid; Matchmaker Two-Hybrid System 3, yeast AH109; C4 on the GAL4 activation domain, AtSKs and Lamin C on the GAL4 DNA binding domain; growth curves (OD600) in quadruple dropout medium at 30°C, high stringency
T4 sequence: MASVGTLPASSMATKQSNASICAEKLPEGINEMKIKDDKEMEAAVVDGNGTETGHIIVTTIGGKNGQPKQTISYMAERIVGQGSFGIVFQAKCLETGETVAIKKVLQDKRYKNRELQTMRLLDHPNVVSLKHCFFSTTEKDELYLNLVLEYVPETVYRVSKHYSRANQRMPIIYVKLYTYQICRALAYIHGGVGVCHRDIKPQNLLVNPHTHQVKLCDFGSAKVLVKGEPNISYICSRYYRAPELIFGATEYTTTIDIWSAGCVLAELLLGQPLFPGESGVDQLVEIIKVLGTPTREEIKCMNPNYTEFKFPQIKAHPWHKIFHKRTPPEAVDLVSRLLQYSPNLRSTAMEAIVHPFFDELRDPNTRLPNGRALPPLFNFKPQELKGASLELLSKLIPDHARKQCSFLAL

[5] = biological target: T1, Arabidopsis SHAGGY-like protein kinase AtSK23 fused to the GAL4 DNA binding domain (Arabidopsis thaliana (ecotype Sei-0 cDNA)); test: as above
[6] = biological target: T5, Arabidopsis SHAGGY-like protein kinase AtSK41 fused to the GAL4 DNA binding domain (Arabidopsis thaliana (ecotype Sei-0 cDNA)) (UniProt Q39019); test: as above
T5 sequence: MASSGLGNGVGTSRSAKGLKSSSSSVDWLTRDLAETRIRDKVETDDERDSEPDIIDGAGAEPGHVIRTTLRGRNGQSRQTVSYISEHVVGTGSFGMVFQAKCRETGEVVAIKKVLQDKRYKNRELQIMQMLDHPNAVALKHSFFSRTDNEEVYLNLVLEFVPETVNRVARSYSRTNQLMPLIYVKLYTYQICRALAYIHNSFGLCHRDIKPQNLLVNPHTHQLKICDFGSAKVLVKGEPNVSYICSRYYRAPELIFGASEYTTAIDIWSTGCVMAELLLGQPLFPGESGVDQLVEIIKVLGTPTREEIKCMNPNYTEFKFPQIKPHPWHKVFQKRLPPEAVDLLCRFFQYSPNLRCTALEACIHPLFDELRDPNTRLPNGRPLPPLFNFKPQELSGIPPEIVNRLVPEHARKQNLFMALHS

Measured: binding

Beet curly top virus (BCTV-B[US:Logan:76]) C4 protein fused to the GAL4 activation domain
binds: [1] | [4] | [5]
no binding: all other assays above
